The results in this text go back to paper PMC8856622.

The chains behind the UniProt entries cited, without tags or fusion partners.
UniProt P06537: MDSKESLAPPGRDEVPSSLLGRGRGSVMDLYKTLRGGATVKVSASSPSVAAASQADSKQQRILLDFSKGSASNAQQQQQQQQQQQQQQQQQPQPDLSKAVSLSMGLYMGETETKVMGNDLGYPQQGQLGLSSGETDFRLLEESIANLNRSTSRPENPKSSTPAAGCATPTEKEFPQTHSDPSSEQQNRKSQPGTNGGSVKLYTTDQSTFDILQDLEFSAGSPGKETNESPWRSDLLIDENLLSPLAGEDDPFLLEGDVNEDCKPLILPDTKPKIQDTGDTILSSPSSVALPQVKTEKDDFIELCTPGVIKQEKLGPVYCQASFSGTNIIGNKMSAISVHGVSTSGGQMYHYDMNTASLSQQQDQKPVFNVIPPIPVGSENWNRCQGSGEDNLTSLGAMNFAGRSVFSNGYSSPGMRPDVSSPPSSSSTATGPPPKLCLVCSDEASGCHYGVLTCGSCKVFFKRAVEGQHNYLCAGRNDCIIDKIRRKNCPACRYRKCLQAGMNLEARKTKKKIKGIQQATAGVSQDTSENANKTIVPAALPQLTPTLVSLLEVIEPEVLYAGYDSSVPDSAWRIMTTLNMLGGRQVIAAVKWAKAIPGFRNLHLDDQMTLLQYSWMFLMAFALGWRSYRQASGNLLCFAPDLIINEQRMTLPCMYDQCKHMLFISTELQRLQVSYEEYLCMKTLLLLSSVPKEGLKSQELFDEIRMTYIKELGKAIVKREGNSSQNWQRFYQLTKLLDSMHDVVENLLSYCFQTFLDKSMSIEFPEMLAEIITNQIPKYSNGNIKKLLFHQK
UniProt Q9WTL8: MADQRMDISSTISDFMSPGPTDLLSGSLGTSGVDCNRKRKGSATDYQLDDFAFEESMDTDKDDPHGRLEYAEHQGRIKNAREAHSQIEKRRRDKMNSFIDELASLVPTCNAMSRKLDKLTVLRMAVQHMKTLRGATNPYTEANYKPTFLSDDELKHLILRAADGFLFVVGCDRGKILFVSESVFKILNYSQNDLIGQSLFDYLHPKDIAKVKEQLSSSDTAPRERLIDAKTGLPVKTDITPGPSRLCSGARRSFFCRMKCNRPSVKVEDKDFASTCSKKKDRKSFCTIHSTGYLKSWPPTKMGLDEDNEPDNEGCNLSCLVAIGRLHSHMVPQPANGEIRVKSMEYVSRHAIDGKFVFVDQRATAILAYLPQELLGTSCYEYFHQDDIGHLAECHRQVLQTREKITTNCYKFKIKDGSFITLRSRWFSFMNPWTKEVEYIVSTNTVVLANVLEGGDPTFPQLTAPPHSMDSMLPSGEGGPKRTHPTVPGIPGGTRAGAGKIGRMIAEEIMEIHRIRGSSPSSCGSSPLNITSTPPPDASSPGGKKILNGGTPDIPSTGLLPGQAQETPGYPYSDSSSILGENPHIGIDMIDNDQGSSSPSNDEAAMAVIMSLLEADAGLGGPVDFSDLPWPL
UniProt Q9EPW2: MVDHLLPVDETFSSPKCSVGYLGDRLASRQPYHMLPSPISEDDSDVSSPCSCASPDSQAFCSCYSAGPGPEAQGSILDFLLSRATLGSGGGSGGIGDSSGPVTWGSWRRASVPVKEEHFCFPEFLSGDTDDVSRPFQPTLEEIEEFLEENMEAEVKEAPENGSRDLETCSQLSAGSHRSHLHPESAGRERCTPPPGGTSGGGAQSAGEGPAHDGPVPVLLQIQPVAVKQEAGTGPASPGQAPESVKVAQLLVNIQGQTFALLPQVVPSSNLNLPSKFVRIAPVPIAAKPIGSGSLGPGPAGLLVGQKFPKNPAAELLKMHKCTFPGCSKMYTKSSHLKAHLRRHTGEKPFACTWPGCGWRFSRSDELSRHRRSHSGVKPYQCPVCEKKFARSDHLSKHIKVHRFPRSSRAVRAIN

Assay [1] has as its target glucocorticoid receptor (GR), endogenous (mouse (endogenous in muscle tissue)) (UniProt P06537). Description: co-IP; IP of endogenous GR from mouse muscle tissue lysate at 4 hours (ZT4) after in vivo prednisone or vehicle pulse at ZT0, with or without overexpression of FLAG-tagged REV-ERBα; immunoblot for BMAL1. A general note: A western blot detects proteins with antibodies after separation by electrophoresis.

Assay [2] concerns the target GFP-tagged glucocorticoid receptor (GR-GFP) (UniProt P06537). Nature of the assay: co-IP; cross-tag IP from whole lysates of electroporated mouse muscle co-overexpressing GR-GFP and BMAL1-FLAG, lysed 4 hours after a light-phase (ZT0) intraperitoneal prednisone pulse; ~100 ug lysate rotated overnight at 4°C with pull-down antibody (GFP- or FLAG-based), Dynabeads, four washes, immunoblot.

Assay [3] concerns the target FLAG (DDK)-tagged BMAL1 (BMAL1-FLAG) (UniProt Q9WTL8). The description is as above.
Assay [4] concerns the target GFP-tagged glucocorticoid receptor (GR-GFP) (UniProt P06537). Description: co-IP; cross-tag IP with KLF15 and GR (fig. S4D), done to validate the approach; conditions not given.

These are yes or no findings as the source states them, for the method shown. In cells and extracts the contact can be indirect. Some binding calls cover weakened binding; strength is not graded here.

Take “BMAL1 (Brain and muscle Arnt-like protein-1), endogenous (from UniProt Q9WTL8 1-632)”: the binding entry in assay [1] is “binds”.

On to “FLAG (DDK)-tagged BMAL1 (BMAL1-FLAG) (from UniProt Q9WTL8 1-632)”, for which the binding result in assay [2] is given as “binds”. As for “GFP-tagged glucocorticoid receptor (GR-GFP) (from UniProt P06537 1-792)”, the binding entry in assay [3] is reported as “binds”. With “Krüppel-like factor 15 (KLF15), tagged construct (from UniProt Q9EPW2 1-415)”, in assay [4], the binding result is on record as “binds”.
